# Construct, isoform or probe ends are uncertain for at least one entry. For some assays here: Weaker means in comparison with the reference protein, sequence or condition of that experiment. For some assays here: At least one result comes from cells or an extract, where the contact may be indirect. For some assays here: Negatives hold for the conditions tested.
# Sequences of proteins named here, by UniProt entry; tags and fusion partners are left off. A change or cut given only in a name is not applied to a line headed by its entry.
# UniProt Q8NE71: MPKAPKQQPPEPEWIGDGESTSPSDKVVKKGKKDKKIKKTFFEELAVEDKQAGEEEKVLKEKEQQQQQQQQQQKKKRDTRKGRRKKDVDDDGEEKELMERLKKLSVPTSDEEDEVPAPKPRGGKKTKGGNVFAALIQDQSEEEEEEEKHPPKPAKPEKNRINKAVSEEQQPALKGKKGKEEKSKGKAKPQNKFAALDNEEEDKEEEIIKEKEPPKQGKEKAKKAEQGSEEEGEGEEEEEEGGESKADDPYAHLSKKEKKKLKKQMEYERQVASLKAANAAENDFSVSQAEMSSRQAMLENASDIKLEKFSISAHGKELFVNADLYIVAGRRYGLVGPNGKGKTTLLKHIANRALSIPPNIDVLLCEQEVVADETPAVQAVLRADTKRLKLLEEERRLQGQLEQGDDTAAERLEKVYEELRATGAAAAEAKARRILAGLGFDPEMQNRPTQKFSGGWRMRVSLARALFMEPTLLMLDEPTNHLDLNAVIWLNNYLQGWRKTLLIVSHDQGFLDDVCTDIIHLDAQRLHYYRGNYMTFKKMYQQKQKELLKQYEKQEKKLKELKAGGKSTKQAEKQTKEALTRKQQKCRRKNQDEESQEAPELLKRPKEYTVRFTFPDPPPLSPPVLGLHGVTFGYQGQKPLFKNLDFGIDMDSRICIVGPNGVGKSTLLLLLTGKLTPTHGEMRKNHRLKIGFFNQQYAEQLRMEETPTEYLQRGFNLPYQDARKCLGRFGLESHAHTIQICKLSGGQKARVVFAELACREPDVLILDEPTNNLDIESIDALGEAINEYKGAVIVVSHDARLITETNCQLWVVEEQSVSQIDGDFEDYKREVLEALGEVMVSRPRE
# Experiments:
# [1] = system: eIF3 complex (13 subunits a-m); assay: binding assay; details: m6A at the single A [4 (m6A)], UV crosslinking, purified native protein, protein details: native complex purified per Pisarev et al. 2007, label: 32P-CTP, letters built from the parent sequence and the stated change
# [2] = system: eIF3 complex (immunoprecipitated with anti-eIF3a or anti-eIF3b) (Homo sapiens); assay: pull-down; details: m6A at the single A [4 (m6A)]; protein in an extract; label: 32P-CTP; letters built from the parent sequence and the stated change
# ABCF1 (Homo sapiens) = ABCF1 (Homo sapiens) (UniProt Q8NE71); assay: pull-down; details: m6A at the single A [4 (m6A)]; protein in an extract; label: 32P-CTP; letters built from the parent sequence and the stated change
# [3] = significantly reduced versus GGAC context, variant of GGAC m6A probe
Sequence,"binding result [1, 3]",binding result [2],binding result (ABCF1 (Homo sapiens)),"binding result ([1]; strongly increased over A probe, bands 60-160 kDa, poly-U competitor, 10 mM HEPES pH 7.4, 140 mM KCl, 1 mM MgCl2, 25 C)"
GGCAGUUUUUUUUUUUUUUU [GCAG m6A probe],binds more weakly,–,–,–
GGUACUUUUUUUUUUUUUU [GUAC m6A probe],binds more weakly,–,–,–
GGGACUUUUUUUUUUUUUU [GGAC m6A probe],–,binds,no binding,binds

# Source: patent publication US20180195077
